Measured values: the supplement of paper PMC5407854, “Inhibitor of ppGalNAc-T3-mediated O-glycosylation blocks cancer cell invasiveness and lowers FGF23 levels” (eLife, 2017)
Whole data set: some 1,700 compounds, median “T2 sensor activation Q score (MG/GFP ratio z-score vs DMSO controls)” near 0.3, cut for the highest 2% near 1.9. This is one part of the list.

What follows are compounds tested on ppGalNAc-T2 sensor (assay: T2 sensor activation Q score (MG/GFP ratio z-score vs DMSO controls) (SD units); higher = more sensor activation (inhibition of ppGalNAc-T2 glycosylation)). Details: HEK293 sensor cells; 10 µM; 6 h.
Protocol: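 Cells were treated with compound at 10 uM for 6 h, then MG/GFP ratio was read by flow cytometry (10,000 cells per well, duplicate wells). Q = (R - R_neg)/SD_neg relative to DMSO vehicle controls; the signal rises when the glycosyltransferase is inhibited.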
`COC(=O)[C@H]1[C@H]2C[C@@H]3c4[nH]c5cc(OC)ccc5c4CCN3C[C@H]2C[C@@H](OC(=O)CC(C)=O)[C@@H]1OC` was tested, and the “T2 sensor activation Q score” value was 0.45. `O=C1C(CO)C(CO)C(CO)C1CO` (stereo not given) was tested, and the “T2 sensor activation Q score” value was -2.3. In the case of `N#CC1=C2CCCCC2(O)NC1=O` (stereo not given), the “T2 sensor activation Q score” value is reported as 0.85. For `Nc1cc(-c2ccccc2)ccc1O`, the “T2 sensor activation Q score” value was -0.5. In the case of `O=C1N=NC2=C1c1c3ccccc3c(O)n1CC2`, the “T2 sensor activation Q score” value is reported as 1.8. `Nc1ccccc1SC1CC(=O)N(c2ccc(Cl)c(Cl)c2)C1=O` (stereo not given) was tested, and the “T2 sensor activation Q score” value was 0.6. For `Nc1ccccc1SC1CC(=O)N(c2ccccc2Cl)C1=O` (stereo not given), the “T2 sensor activation Q score” value was 0.25. For `NC(N)=Nc1ccc(N=C(N)N)cc1`, the “T2 sensor activation Q score” value was 0.85. `Nc1ccc(S(=O)(=O)Nc2cnc3ccccc3n2)cc1` was tested, and the “T2 sensor activation Q score” value was 0.95. With `O=c1ccn2c(n1)SC(c1ccccc1)C2` (stereo not given) the “T2 sensor activation Q score” value was 0.65. With `N#Cc1ncc(Cl)c2ccccc12` the “T2 sensor activation Q score” value was 1.3. In the case of `CSc1nc(O)c(Nc2cccc(Cl)c2)c(=O)[nH]1`, the “T2 sensor activation Q score” value is reported as -0.55. With `Oc1ccccc1N=Cc1c(O)ccc2ccccc12` the “T2 sensor activation Q score” value was -0.4. In the case of `COc1ccc2c(=O)cc(-c3cccnc3)oc2c1OC`, the “T2 sensor activation Q score” value is reported as 1. With `CCCCSc1cc(C)nc(N)n1` the “T2 sensor activation Q score” value was -0.05. For `O=C(Nc1ccc(Cl)cc1)Nc1cccc2nsnc12`, the “T2 sensor activation Q score” value was 1.2. With `Cn1c(SCc2ccccn2)nc2c1c(=O)[nH]c(=O)n2C` the “T2 sensor activation Q score” value was 1.15. In the case of `CSc1cccc(NC(=O)N2CCN(C)CC2)c1`, the “T2 sensor activation Q score” value is reported as 0.5. In the case of `C#CCCOC(=O)Nc1ccccc1`, the “T2 sensor activation Q score” value is reported as -0.95. In the case of `Clc1ccc(SCNc2ccccc2Cl)cc1`, the “T2 sensor activation Q score” value is reported as -1.05. With `OC(c1cc(-c2ccc(C(F)(F)F)cc2)nc(C(F)(F)F)c1)C1CCCCN1` (stereo not given) the “T2 sensor activation Q score” value was 0.5. With `N=C(N)n1c(N)nc2ccccc2c1=O` the “T2 sensor activation Q score” value was -0.1. `COC(=O)Cc1[nH]c(=O)[nH]c1C(=O)OC` was tested, and the “T2 sensor activation Q score” value was 1.15. With `O=C1NC(=O)N2CCSC2(Cc2ccccc2)N1` (stereo not given) the “T2 sensor activation Q score” value was 0.8. With `Cc1cc(OCCCCOc2ccc(C#N)cc2)ccc1[N+](=O)[O-]` the “T2 sensor activation Q score” value was 1.45. `C=C(C)C(=O)Oc1ccc(N=Nc2ccc(C)cc2)ccc1=O` was tested, and the “T2 sensor activation Q score” value was 1.1. With `Oc1ccc(/C=C/c2cnccn2)cc1` the “T2 sensor activation Q score” value was 0.55. With `CCOC(=O)c1c(N)ssc1=S` the “T2 sensor activation Q score” value was -0.15. `CC12C(=O)N(c3nccs3)C(=O)C1(C)C1CCC2O1` (stereo not given) was tested, and the “T2 sensor activation Q score” value was -1.25. In the case of `Cn1c(=O)c2[nH]c(SCc3ccccn3)nc2n(C)c1=S`, the “T2 sensor activation Q score” value is reported as 0.45. In the case of `CN1C(=O)CC2(C)C1=CCc1scnc12` (stereo not given), the “T2 sensor activation Q score” value is reported as 0.6. For `O=C(N(c1ccccc1)c1ccccc1)N(c1ccccc1)c1ccccc1`, the “T2 sensor activation Q score” value was 1.2. For `CCC(CC)NCCOC(=O)c1ccc([N+](=O)[O-])cc1`, the “T2 sensor activation Q score” value was -1. For `O=[N+]([O-])c1cccc(/C=C/c2ccccn2)c1`, the “T2 sensor activation Q score” value was -1.2. With `CC12CCC(C(=Nc3ccc(N=C4C(=O)C5(C)CCC4C5(C)C)cc3)C1=O)C2(C)C` the “T2 sensor activation Q score” value was 1. With `Cc1cn(-c2cc(NC(=O)c3ccc(C)c(Nc4nccc(-c5cccnc5)n4)c3)cc(C(F)(F)F)c2)cn1` the “T2 sensor activation Q score” value was 1.25. In the case of `CC1=CC(C)(C)NC(=S)N1c1cccc2cc(S(=O)(=O)O)ccc12`, the “T2 sensor activation Q score” value is reported as 1.05. For `OC(C#Cc1ccccc1)(c1ccccc1)c1ccccc1`, the “T2 sensor activation Q score” value was 0. `C1CCCC(NC2=NCCO2)CCC1` was tested, and the “T2 sensor activation Q score” value was 0. With `O=[N+]([O-])c1ccc(Sc2cccc[n+]2[O-])c2nonc12` the “T2 sensor activation Q score” value was -0.55. With `Cc1ccc(Nc2n[nH]c(=S)s2)cc1F` the “T2 sensor activation Q score” value was -0.95. In the case of `O=c1cc(-c2ccc(O)cc2)oc2c(O)c(O)c(O)c(O)c12`, the “T2 sensor activation Q score” value is reported as 1.35. In the case of `CC(C)(CO)N1CCN(C(=S)Nc2ccccc2)CC1`, the “T2 sensor activation Q score” value is reported as 1.45. For `O=c1[nH]c(=O)n2ncnc2[nH]1`, the “T2 sensor activation Q score” value was -0.4. With `CC12CCC(C1)C(C)(C)C2OC(=O)c1ccccc1C(=O)O` (stereo not given) the “T2 sensor activation Q score” value was 1.3. For `c1ccc(-c2nc[nH]c2-c2ccccc2)cc1`, the “T2 sensor activation Q score” value was 0.05. With `COc1ccn(C2CCCCO2)c(=O)n1` (stereo not given) the “T2 sensor activation Q score” value was 0.7. With `CC1=CC(=O)Nc2cncnc2N1` the “T2 sensor activation Q score” value was -1.85. `CC(=O)N1C(=O)C2(NCC(C)N2)c2ccccc21` (stereo not given) was tested, and the “T2 sensor activation Q score” value was 0.45. With `CCS(=O)(=O)C1C(=O)N(C)C(S(=O)(=O)CC)C(=O)N1C` (stereo not given) the “T2 sensor activation Q score” value was 0.9. In the case of `COc1cc(CC(=O)C(=O)O)oc(=O)c1`, the “T2 sensor activation Q score” value is reported as 0.95. `COc1cccc2c1C(=O)c1c(O)c3c(c(O)c1C2=O)C[C@@](O)(C(=O)CO)C[C@@H]3O[C@H]1C[C@H](N)[C@@H](O)[C@H](C)O1` was tested, and the “T2 sensor activation Q score” value was -2.9. In the case of `Nc1o[nH]c(=O)c1C1CCCCC1`, the “T2 sensor activation Q score” value is reported as -0.8. In the case of `C=CCC(CC)C(=O)NC(=O)N1CCCc2ccccc21` (stereo not given), the “T2 sensor activation Q score” value is reported as 1.05. For `COC(=O)C[C@](O)(CCCC(C)(C)O)C(=O)O[C@@H]1C(OC)=C[C@]23CCCN2CCc2cc4c(cc2[C@H]13)OCO4`, the “T2 sensor activation Q score” value was 4.5. For `CCOC(=O)/C=C/c1nc(C(=O)OCC)c(C)c(=O)[nH]1`, the “T2 sensor activation Q score” value was -0.1. With `CCCn1cnc2c(=S)nc(N)[nH]c21` the “T2 sensor activation Q score” value was 0.15. For `COc1cc(/C=N/Nc2nc3c([nH]2)c(=O)n(C)c(=O)n3C)ccc1O`, the “T2 sensor activation Q score” value was 1.7. In the case of `CC(=O)O[C@H]1C(=O)[C@@]2(C)[C@H]([C@H](OC(=O)c3ccccc3)[C@]3(O)C[C@H](OC(=O)[C@H](O)[C@@H](NC(=O)c4ccccc4)c4ccccc4)C(C)=C1C3(C)C)[C@]1(OC(C)=O)CO[C@@H]1C[C@@H]2O`, the “T2 sensor activation Q score” value is reported as -0.9. `NC(=S)NC(=O)c1ccccc1` was tested, and the “T2 sensor activation Q score” value was 1.4. `CCCSc1ncnc2[nH]ncc12` was tested, and the “T2 sensor activation Q score” value was 0.65. For `O=[N+]([O-])c1ccc(/C=[N+](\[O-])CCO)o1`, the “T2 sensor activation Q score” value was 1.2. With `NC(N)=NC(=S)Nc1ccc(Cl)cc1` the “T2 sensor activation Q score” value was -1.6. For `C=CCOCCN(CC)CC`, the “T2 sensor activation Q score” value was -1.25. With `Cc1ccc(Cl)cc1NC(=O)c1cc2ccccc2cc1O` the “T2 sensor activation Q score” value was -0.35.
